Reference: the supplement of paper PMC6411743
± gives the standard deviation of the averaged measurements. The list shows a part of the results.

By UniProt entry, the sequences of proteins in these tests, tags left out. Where a name states a change or a piece, a line headed by the entry shows the natural chain unless it says otherwise.
UniProt O43566: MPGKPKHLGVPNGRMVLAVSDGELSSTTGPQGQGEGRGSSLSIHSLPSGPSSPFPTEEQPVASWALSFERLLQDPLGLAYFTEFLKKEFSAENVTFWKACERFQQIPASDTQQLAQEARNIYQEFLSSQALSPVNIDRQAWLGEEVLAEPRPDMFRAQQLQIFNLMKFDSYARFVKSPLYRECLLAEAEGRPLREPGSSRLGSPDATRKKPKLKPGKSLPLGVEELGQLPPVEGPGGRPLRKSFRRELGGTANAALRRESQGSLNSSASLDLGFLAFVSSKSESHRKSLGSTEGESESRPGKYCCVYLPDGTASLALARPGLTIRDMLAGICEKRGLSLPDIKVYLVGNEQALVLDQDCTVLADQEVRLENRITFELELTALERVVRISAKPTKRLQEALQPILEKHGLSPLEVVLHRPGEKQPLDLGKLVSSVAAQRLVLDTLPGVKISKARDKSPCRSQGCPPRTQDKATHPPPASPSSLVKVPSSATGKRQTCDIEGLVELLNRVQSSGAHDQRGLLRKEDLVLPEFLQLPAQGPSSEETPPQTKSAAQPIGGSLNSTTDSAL
UniProt Q5SW79: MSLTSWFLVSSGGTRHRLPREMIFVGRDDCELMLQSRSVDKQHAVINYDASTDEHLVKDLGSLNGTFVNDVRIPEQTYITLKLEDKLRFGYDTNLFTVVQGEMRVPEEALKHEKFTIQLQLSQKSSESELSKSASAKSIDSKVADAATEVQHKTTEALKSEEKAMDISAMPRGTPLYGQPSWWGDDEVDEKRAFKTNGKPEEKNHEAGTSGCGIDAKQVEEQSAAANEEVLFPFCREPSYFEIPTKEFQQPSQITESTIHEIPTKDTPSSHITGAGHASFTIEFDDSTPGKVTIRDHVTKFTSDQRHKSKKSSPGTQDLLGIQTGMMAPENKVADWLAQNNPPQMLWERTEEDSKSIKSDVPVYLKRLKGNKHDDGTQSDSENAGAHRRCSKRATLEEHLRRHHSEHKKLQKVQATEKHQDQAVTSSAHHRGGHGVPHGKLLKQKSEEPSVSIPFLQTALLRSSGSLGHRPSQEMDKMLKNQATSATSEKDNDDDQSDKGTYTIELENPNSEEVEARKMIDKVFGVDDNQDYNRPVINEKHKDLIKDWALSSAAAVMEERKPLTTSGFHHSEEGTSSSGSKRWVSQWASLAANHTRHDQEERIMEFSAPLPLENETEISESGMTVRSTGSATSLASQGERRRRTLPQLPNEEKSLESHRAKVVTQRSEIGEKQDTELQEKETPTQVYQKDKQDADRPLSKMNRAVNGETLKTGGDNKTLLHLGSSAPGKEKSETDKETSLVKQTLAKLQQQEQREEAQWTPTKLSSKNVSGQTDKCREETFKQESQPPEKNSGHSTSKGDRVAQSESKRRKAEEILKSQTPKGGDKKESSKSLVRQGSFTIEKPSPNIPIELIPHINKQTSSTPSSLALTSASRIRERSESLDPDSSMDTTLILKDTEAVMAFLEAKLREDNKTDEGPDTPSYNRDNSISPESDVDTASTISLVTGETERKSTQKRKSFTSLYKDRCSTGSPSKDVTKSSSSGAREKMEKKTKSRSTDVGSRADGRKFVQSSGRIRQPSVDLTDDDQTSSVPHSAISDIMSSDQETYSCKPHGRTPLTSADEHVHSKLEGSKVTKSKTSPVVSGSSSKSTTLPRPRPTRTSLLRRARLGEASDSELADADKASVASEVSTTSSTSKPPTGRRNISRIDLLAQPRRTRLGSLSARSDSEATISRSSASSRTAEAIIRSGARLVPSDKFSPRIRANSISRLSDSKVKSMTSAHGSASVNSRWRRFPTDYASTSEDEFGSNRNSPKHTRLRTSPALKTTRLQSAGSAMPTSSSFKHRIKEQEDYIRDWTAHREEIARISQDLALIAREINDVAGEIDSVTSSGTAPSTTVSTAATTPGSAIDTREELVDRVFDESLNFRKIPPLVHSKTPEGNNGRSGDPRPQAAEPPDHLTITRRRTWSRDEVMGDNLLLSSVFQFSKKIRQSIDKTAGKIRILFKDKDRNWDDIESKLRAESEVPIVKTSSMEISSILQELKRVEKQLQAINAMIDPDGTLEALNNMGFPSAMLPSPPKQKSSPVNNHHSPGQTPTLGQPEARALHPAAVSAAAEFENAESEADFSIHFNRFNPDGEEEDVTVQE
UniProt Q6PH81: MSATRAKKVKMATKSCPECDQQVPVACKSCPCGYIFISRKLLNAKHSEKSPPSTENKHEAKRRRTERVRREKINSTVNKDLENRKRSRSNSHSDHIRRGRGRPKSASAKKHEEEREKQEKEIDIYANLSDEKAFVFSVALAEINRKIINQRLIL
UniProt Q8N511: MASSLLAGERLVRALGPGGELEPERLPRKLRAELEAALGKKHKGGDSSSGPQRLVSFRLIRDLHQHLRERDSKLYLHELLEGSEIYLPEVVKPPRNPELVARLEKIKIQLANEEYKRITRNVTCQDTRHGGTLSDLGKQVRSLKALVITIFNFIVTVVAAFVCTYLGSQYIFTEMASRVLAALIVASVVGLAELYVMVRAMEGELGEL

Compound: Nc1nc2c(ncn2[C@@H]2O[C@H](COP(=O)(O)OP(=O)(O)OP(=O)(O)O)[C@@H](O)[C@H]2O)c(=O)[nH]1 [guanosine triphosphate]
Assay: NP40-soluble protein abundance relative to vehicle (solubility fold change) (ratio); higher = more soluble protein in presence of GTP
Procedure: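 Solubility proteome profiling in Jurkat crude lysate. Lysate was treated with Mg-GTP (0.1-10 mM) for 10 min at room temperature and 3 min at 37 °C, then solubilised with 0.8% NP40 and benzonase, followed by ultracentrifugation. Proteins were quantified by TMT10 LC-MS/MS; the value is the NP40-soluble abundance relative to the NP40-processed vehicle, from 3 independent experiments.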

Target | NP40-soluble protein abundance (concentration: 0.1mM) | NP40-soluble protein abundance (concentration: 0.5mM) | NP40-soluble protein abundance (concentration: 1mM) | NP40-soluble protein abundance (concentration: 2mM) | NP40-soluble protein abundance (concentration: 4mM) | NP40-soluble protein abundance (concentration: 6mM) | NP40-soluble protein abundance (concentration: 8mM) | NP40-soluble protein abundance (concentration: 10mM)
H0Y8W3 and related entries (UniProt O43566) | 0.964 ± 0.04 | 0.975 ± 0.016 | 0.995 ± 0.014 | 0.991 ± 0.041 | 0.967 ± 0.036 | 0.971 ± 0.053 | 0.961 ± 0.022 | 0.963 ± 0.034
H0Y4T4 and related entries (UniProt Q5SW79) | 0.981 ± 0.061 | 0.97 ± 0.069 | 1.01 ± 0.028 | 1.02 ± 0.061 | 1.05 ± 0.072 | 1.06 ± 0.06 | 1.12 ± 0.13 | 1.13 ± 0.12
H3BQL3 and related entries (UniProt Q6PH81) | 0.905 ± 0.086 | 0.839 ± 0.068 | 1.13 ± 0.1 | 1.04 ± 0.034 | 1.09 ± 0.067 | 1.14 ± 0.12 | 1.15 ± 0.088 | 1.3 ± 0.1
H3BQW8 and related entries (UniProt Q16775) | 0.978 ± 0.026 | 0.948 ± 0.017 | 0.916 ± 0.046 | 0.901 ± 0.049 | 0.898 ± 0.071 | 0.864 ± 0.046 | 0.861 ± 0.078 | 0.836 ± 0.11
J3KS81 and related entries (UniProt Q8N511) | 0.9371 ± 0.009 | 0.882 ± 0.014 | 0.966 ± 0.033 | 0.986 ± 0.18 | 1.12 ± 0.056 | 1.1 ± 0.073 | 1.18 ± 0.049 | 1.22 ± 0.11
